Results published in PubChem BioAssay AID504444 (National Center for Advancing Translational Sciences (NCATS), 2011).
About 7,500 (2.1%) of roughly 360,000 compounds were called active. The shares of active, inactive and inconclusive entries below differ from those in the screen. The call rests on the fitted dose curve; in most records, active means well fitted inhibition curve with a large enough effect; inconclusive means small, poorly fitted or top-dose-only effect, or effect the other way; inactive means flat fitted curve, though single readings scatter. A potency beside an inconclusive call is a rough fit, not a confirmed value.

test: Nrf2 qHTS screen for inhibitors; details: A549 ARE-Fluc reporter, luciferase luminescence, 18-24 h; series mostly up to 46 µM; further: nearly all actives have a fitted effect of over 60% in size
In short: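 Cells were seeded and rested 2 h, then exposed to compounds for 18-24 h. CellTiter-Fluor was read first as a viability measure. BugLite was added 15 min before the final luminescent read of ARE-luciferase activity in A549 cells.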
Potency means the concentration at half of the fitted maximal effect.

| Structure (SMILES) | Potency |
| --- | --- |
| COc1cccc(NC(=O)c2oc3ccccc3c2NC(=O)Cc2cccc(C)c2)c1 | inactive |
| CN(C(=O)C(C)(C)C)c1ccc(OCC(=O)N2CCc3ccccc3C2)cc1 | active: 10.3 µM |
| COc1ccc(CC(=O)Nc2nnc(C(C)(C)C)s2)cc1OC | active: 9.2 µM |
| Cc1ccc(C(=O)NC(=S)N2CCN(C)CC2)cc1 | inactive |
| CCOc1ccc(NC(=S)NNC(=S)Nc2cccc(C(F)(F)F)c2)cc1 | inconclusive: 13 µM [activator, partial curve] |
| CCC(c1nnc(SCC(=O)Nc2ccc(Cl)cc2C(F)(F)F)n1C1CCCCC1)N(C)C (stereo not drawn) | inconclusive: 13 µM [falling, partial curve, poor fit] |
| NS(=O)(=O)c1ccc(NC2=CC(=O)C(=O)c3ccccc32)cc1 | inactive |
| COc1ccc(NC(=O)c2cnc3ccccn3c2=O)c(OC)c1 | inconclusive: 14.6 µM [activator, partial curve] |
| O=[N+]([O-])c1ccc(Cl)c(NC(=S)N2CCCC2)c1 | inconclusive: 18.4 µM [activator, partial curve, poor fit] |
| Cc1ccc(S(=O)(=O)c2c(N)n(CCC(C)C)c3nc4ccccc4nc23)cc1 | inconclusive: 20.6 µM [falling, single point] |
| CC1CCN(C(=O)C2CCN(S(=O)(=O)c3ccc4c(c3)CC(C)N4C(=O)C3CC3)CC2)CC1 (stereo not drawn) | inconclusive: 18.4 µM [falling, partial curve, poor fit] |
| COc1cccc(CNS(=O)(=O)c2ccc3c(c2)N(C)CCO3)c1 | inconclusive: 25.9 µM [falling, partial curve, poor fit] |
| COC(=O)c1ccccc1NC(=O)COc1ccccc1 | inconclusive: 25.9 µM [activator, single point] |
| CC1CC(N(C(=O)c2ccccc2Cl)c2ccccc2)c2ccccc2N1 (stereo not drawn) | inconclusive: 20.6 µM [falling, single point] |
| COc1ccc(N2CCN(C(=O)CCn3cnc4onc(-c5ccc(F)cc5)c4c3=O)CC2)cc1 | inconclusive: 29.1 µM [falling, single point] |
| COc1ccc(-n2nnnc2/C=C/Nc2cc(C(F)(F)F)ccc2OC)cc1 | inactive |
| C/C(N)=C(/C#N)C(=O)CSc1ccccc1F | inconclusive: 10.3 µM [activator, partial curve] |
| CC(C)(C)C1CCc2c(sc(NC(=O)c3ccncc3)c2C(=O)Nc2ccccc2Cl)C1 (stereo not drawn) | inactive |
| CCCc1c(O)nc(SC2CC(=O)N(c3ccc(C)c(Cl)c3)C2=O)[nH]c1=O (stereo not drawn) | inconclusive: 5.8 µM [falling, full curve] |
| Cc1occc1-c1nnc(-c2cc([N+](=O)[O-])cc([N+](=O)[O-])c2)o1 | inconclusive: 29.1 µM [activator, single point] |
| CSc1nnc(C)c(=O)n1COC(=O)COc1ccccc1F | inconclusive: 1.84 µM [activator, partial curve] |
| Cc1cc(C)cc(OCc2nnc(SCC(=O)OC(C)C)o2)c1 | inactive |
| Cc1ccc(/C=N/Nc2nc3ccccc3s2)o1 | inconclusive: 1.84 µM [activator, partial curve, poor fit] |

| Structure (SMILES) | Potency |
| --- | --- |
| CCCCSc1nc2ccc(Nc3nc(N4CCOCC4)nc(N4CCOCC4)n3)cc2s1 | inconclusive: 29.1 µM [falling, single point] |
| Cc1ccc(NCC(=O)N/N=C\c2ccc([N+](=O)[O-])o2)cc1 | active: 20.6 µM |
| OCc1ncc(-c2ccccc2)s1 | inconclusive: 23.1 µM [activator, single point] |
| COc1ccc2cc(C(=O)C3CCCN(C(=O)Cc4c(C)noc4C)C3)ccc2c1 (stereo not drawn) | inconclusive: 20.6 µM [falling, partial curve, poor fit] |
| COc1ccc(-c2coc3c(C)c4oc(=O)c(CCC(=O)O)c(C)c4cc23)cc1 | inconclusive: 18.4 µM [falling, single point] |
| CCCN1CCN(C(=O)Cn2nc(C)n3c(cc4c(OC)cccc43)c2=O)CC1 | inactive |
| Cc1cc(C)cc(N2CCn3c2nc2c3c(=O)n(CCc3ccccc3)c(=O)n2C)c1 | inconclusive: 6.51 µM [falling, single point] |
| Cn1c(=O)[nH]c(=O)c2c1nc(N1CCN(C(c3ccccc3)c3ccccc3)CC1)n2CCO | inconclusive: 29.1 µM [falling, single point] |
| Cc1cc2[nH]c3c4ccccc4nc(C)c3c2cc1C | inconclusive: 29.1 µM [falling, single point] |
| CC(=O)OCC1=C[C@@H]2OC(=O)C3=CO[C@@H](O[C@@H]4O[C@H](CO)[C@@H](O)[C@H](O)[C@H]4O)[C@H]1[C@@H]32 | inactive |
| CC1Cc2nc(SCC(=O)c3ccccc3)n(Cc3ccccc3)c(=O)c2S1 (stereo not drawn) | inconclusive: 11.6 µM [falling, partial curve] |
| COCCNC(=S)N1CCN(c2ccc(Cl)cc2)CC1 | inconclusive: 10.3 µM [falling, partial curve, poor fit] |
| COC(=O)[C@H](C)N(Cc1ccc(Cl)c(Cl)c1)S(=O)(=O)CCN1CCN(c2ccccc2)CC1 | inconclusive: 29.1 µM [falling, single point] |
| CCN1CCc2c(C#N)c(N3CCOCC3)nc(NCc3ccccc3)c2C1 | inactive |
| Cc1cc(C)c2nc(NC(=O)[C@@H](NC(=O)c3cccc(S(=O)(=O)N4CCOCC4)c3)C(C)C)sc2c1 | inconclusive: 0.184 µM [activator, full curve] |
| CCc1ccc(-c2cc3c(N4CCN(c5ccccc5)CC4)nccn3n2)cc1 | inconclusive: 32.6 µM [falling, single point] |
| O=C(/C=C/c1ccc([N+](=O)[O-])s1)N1CCCC1 | active: 20.6 µM |
| Cc1nn(C)c(C)c1CCC(=O)NC1CC(C)(C)Cc2c1cnn2-c1ccccc1 (stereo not drawn) | inactive |
| Cc1nccn1CCC(=O)Nc1ccc(Cl)cc1 | inactive |
| CCOC(=O)Cc1csc(-n2sc3ccccc3c2=O)n1 | inactive |
| COc1cc(/C=N/NC(N)=S)cc(Br)c1OCc1ccccc1F | inconclusive: 29.1 µM [falling, single point] |
| CCN1CCN(CCCNC(=O)Cn2nc(C)n3c(cc4cc(C)ccc43)c2=O)CC1 | inactive |
| Cc1nc2c(nc1C)C(=O)c1ccccc1C2=O | active: 16.4 µM |

Quoted at random: 3 compounds from above, in no set order.

| Structure (SMILES) | Potency |
| --- | --- |
| CC1Cc2nc(SCC(=O)c3ccccc3)n(Cc3ccccc3)c(=O)c2S1 (stereo not drawn) | inconclusive: 11.6 µM [falling, partial curve] |
| Cc1occc1-c1nnc(-c2cc([N+](=O)[O-])cc([N+](=O)[O-])c2)o1 | inconclusive: 29.1 µM [activator, single point] |
| COc1ccc(N2CCN(C(=O)CCn3cnc4onc(-c5ccc(F)cc5)c4c3=O)CC2)cc1 | inconclusive: 29.1 µM [falling, single point] |

The results go on:

| Structure (SMILES) | Potency |
| --- | --- |
| CS(=O)(=O)N(CC(=O)N1CCN(c2ccccc2)CC1)c1ccc(Cl)c(C(F)(F)F)c1 | inconclusive: 16.4 µM [falling, partial curve] |
| Cc1ccc(NS(=O)(=O)c2ccc(-n3cccn3)cc2)cc1F | active: 14.6 µM |
| O=C(CSc1nc2ccc(Nc3nc(N4CCCC4)nc(N4CCCC4)n3)cc2s1)NCc1ccco1 | inconclusive: 29.1 µM [falling, single point] |
| C#CCOc1c(Br)cc(/C=C2/C(=O)ON=C2C)cc1OC | inactive |
| COc1ccc2sc(-c3ccc(SC)cc3)c(C#CCO)c2c1 | inconclusive: 2.59 µM [activator, partial curve, poor fit] |
| CCOC(=O)Cc1ccc(NC(=O)N2CC(CC)Oc3ccccc32)cc1 (stereo not drawn) | inactive |
| COc1cccc(-c2nc(-c3ccc(NC(=O)Cc4ccccc4OC)cc3)no2)c1 | inconclusive: 10.3 µM [falling, partial curve] |
| CN(CCc1ccccc1)C(=O)c1cccc(NC(=O)Cc2cccc(NC(=O)C3CCCN(C(=O)C4CCCC4)C3)c2)c1 (stereo not drawn) | inconclusive: 25.9 µM [falling, single point] |
| O=C(NCCc1ccccc1)/C(=N\O)c1ccccc1 | inconclusive: 13 µM [activator, partial curve, poor fit] |
| O=C(CSC1=NNC(c2ccccn2)S1)Nc1ccc(C(F)(F)F)cc1 (stereo not drawn) | inconclusive: 18.4 µM [falling, single point] |
| O=C(Nc1ccc(O)c2ncccc12)c1ccccc1F | inconclusive: 16.4 µM [falling, partial curve, poor fit] |
| O=C(N[C@@H]1C/C=C\C[C@H](CC(=O)N(CCO)Cc2ccccc2)C(=O)NC[C@@H](c2ccccc2)OC1=O)OCC1c2ccccc2-c2ccccc21 | inconclusive: 16.4 µM [falling, single point] |
| Cc1ccc(-c2csc(Nc3ccccn3)n2)cc1 | inconclusive: 6.51 µM [activator, single point] |
| O=S(=O)(Nc1nc2ccccc2nc1NCC1CCCO1)c1ccc(F)cc1 (stereo not drawn) | inconclusive: 23.1 µM [falling, single point] |
| O=C(CSc1ncnc2c1oc1ccccc12)Nc1cccc(C(F)(F)F)c1 | inconclusive: 13 µM [falling, partial curve] |
| Cc1cc(OCc2nc3ccccc3s2)ccc1N | inconclusive: 1.03 µM [activator, full curve] |
| O=C(Nc1cccc(S(=O)(=O)c2cccc(NC(=O)c3ccco3)c2)c1)c1ccco1 | inconclusive: 29.1 µM [falling, single point] |
| CCOC(=O)N1CCN(S(=O)(=O)c2cc(-c3nn4c(C)nnc4c4ccccc34)ccc2C)CC1 | inconclusive: 29.1 µM [falling, single point] |
| O=C1C(C=NCc2ccccn2)=C(O)c2ccccc21 | inconclusive: 8.2 µM [activator, partial curve] |
| CC1([N+](=O)[O-])COC2(CCCCC2)OC1 | inactive |
| CCOC(=O)C1(Cc2ccc(OC)cc2)CCN(C(=O)c2sc(C)nc2C)CC1 | inconclusive: 25.9 µM [falling, single point] |
| O=C1c2[nH]nc(-c3ccccc3O)c2C(c2ccc(F)cc2)N1Cc1ccco1 (stereo not drawn) | inconclusive: 20.6 µM [falling, partial curve, poor fit] |
